Results are given in words; binding and its absence hold for the method and conditions named. Some entries that bind do so weakly or less than the wild type.
Columns and labels:
Assay in all cases: yeast two-hybrid screen of a human fetal brain cDNA library
[1] = target: T1, Id2 clones from the two-hybrid screen (human) (UniProt Q02363)
T1 sequence (looked up): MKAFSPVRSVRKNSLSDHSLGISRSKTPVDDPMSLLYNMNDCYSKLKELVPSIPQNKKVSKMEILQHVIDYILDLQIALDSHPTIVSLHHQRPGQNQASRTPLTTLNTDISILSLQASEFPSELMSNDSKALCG

By UniProt entry, the sequences of proteins in these tests, tags left out. Residues count along the entry.
UniProt P15884, residues 564-667: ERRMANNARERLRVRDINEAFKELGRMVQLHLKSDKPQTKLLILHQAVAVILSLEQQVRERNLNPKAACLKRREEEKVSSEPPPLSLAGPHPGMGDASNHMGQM
UniProt Q99081, residues 577-682: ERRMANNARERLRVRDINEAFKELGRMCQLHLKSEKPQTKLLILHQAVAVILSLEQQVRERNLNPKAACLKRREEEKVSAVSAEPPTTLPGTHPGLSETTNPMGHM

[2] = target: bHLH transcription factor E2-2 (two-hybrid clones) (human) (UniProt P15884)
[3] = target: bHLH transcription factor HEB (two-hybrid clones) (human) (UniProt Q99081)

binding [1]: binds | binding [2]: binds | binding [3]: binds
B1: full length Id2 as bait (entire coding sequence of human Id2 in bait plasmid pDBLeu) (protein, UniProt Q02363 1-134, looked up)
chain: MKAFSPVRSVRKNSLSDHSLGISRSKTPVDDPMSLLYNMNDCYSKLKELVPSIPQNKKVSKMEILQHVIDYILDLQIALDSHPTIVSLHHQRPGQNQASRTPLTTLNTDISILSLQASEFPSELMSNDSKALCG

Reference: patent US20070041944A1, “Treating tumors by ENH dislocation of ID proteins” (THE TRUSTEES OF COLUMBIA UNIVERSITY IN THE CITY OF NEW YORK, priority 2005, published 2007)
